In patent US11524938B2, “Aromatic sulfonamide derivatives” (Bayer Pharma Aktiengesellschaft, priority 2016, dated 2022):
Where “and” joins values, the source holds several entries; their conditions need not be identical. Identical values can stand only once. The name of at least one read-out is uncertain.

Molecular target: T1, endogenous P2X4 channels (Homo sapiens, UniProt Q99571)
T1 construct: measure calcium influx through endogenous P2X4 channels into primary human monocytes
T1 sequence (Q99571 1-388): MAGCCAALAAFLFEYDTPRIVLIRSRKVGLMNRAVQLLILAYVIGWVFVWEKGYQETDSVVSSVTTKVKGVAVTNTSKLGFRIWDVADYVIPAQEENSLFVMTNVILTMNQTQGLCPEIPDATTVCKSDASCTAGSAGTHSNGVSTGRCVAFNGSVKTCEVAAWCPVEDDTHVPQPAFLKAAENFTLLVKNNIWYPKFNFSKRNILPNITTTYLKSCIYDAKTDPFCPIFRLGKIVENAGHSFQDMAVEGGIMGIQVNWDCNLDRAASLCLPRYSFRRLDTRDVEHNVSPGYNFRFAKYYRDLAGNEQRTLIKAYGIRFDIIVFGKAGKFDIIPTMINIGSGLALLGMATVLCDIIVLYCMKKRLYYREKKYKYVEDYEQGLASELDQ
Assay: Human Monocyte P2X4 Assay (FLIPR)
Format: cell-based
Settings: primary human monocytes, 3 μM BzATP, one value per donor
Procedure: The principle of the assay is to measure calcium influx through endogenous P2X4 channels into primary human monocytes, following activation by 2′,3′-O-(4-benzoyl-benzoyl)-ATP (Bz-ATP). Intracellular calcium concentration changes were measured with a Flipr® (Molecular Devices) device using a calcium sensitive dye (Fluo-8). In primary monocytes P2X4 is located at the lysosome membrane, therefore exocytosis has to be triggered to expose P2X4 at the cellular membrane.
Human peripheral blood mononuclear cells (PBMCs) from anticoagulated blood (blood cells, BC) were isolated via density gradient centrifugation. Whole blood was diluted 1:3 with PBS. Samples of 30 mL were layered carefully on top of 15 mL Biocoll (BIOCHROM) in 50 mL centrifuge tubes (Falcon). Tubes were centrifuged at 914×g for 25 min at RT without brake. The PBMC layer was removed with a 10 mL pipette and transferred into tubes with ice-cold PBS in a total volume of 50 mL. Cells were washed twice by pelleting at 300×g at 4° C., for 10 min and for 5 min respectively. PBMCs were re-suspended in 10 mL medium (X-vivo, Biozym Scientific) and counted in a Neubauer chamber.
Monocytes were isolated by negative selection using the Monocyte isolation kit II from Miltenyi (#130-091-153) according to the instructions. Isolation should be done fast and cells and solutions should be kept on ice at any time. PBMCs in batches of 10 exp8 cells were pelleted (300×g, 10 min) and re-suspended with 300 μL MACS buffer in a 50 mL Falcon tube. FcR Blocking reagent (100 μl) and Biotin-Ab (100 μl) were added, mixed and incubated on ice for 10 min. MACS buffer (300 μL) and anti-Biotin Micro-beads (100 μL) were added, mixed and incubated on ice for 15 min. Cells were washed by pelleting (300×g for 10 min) and re-suspended in 500 μL MACS buffer. For each batch one separation column was placed in the MACS separator and rinsed with 3 mL MACS buffer. The cell suspension was added to the column, followed by 3×3 mL MACS buffer for washing, and the eluent containing the monocytes was collected. Cells were pelleted (300×g for 10 min), re-suspended in X-vivo medium and counted. Monocytes were seeded into fibronectin-coated micro-plates (384-well, black, flat transparent bottom; Corning #3848) at a density of 30,000 cells/well in 50 μL, and cultivated over night (37° C., 5% CO2).
Test substances were dissolved in 100% DMSO at a stock concentration of 10 mM and stored at −20° C. in aliquots. Serial dilutions (2×) were prepared in DMSO and diluted 500× with assay buffer to generate the antagonist plate. In the Flipr measurement, 10 μL per well were transferred (4× dilution) and a final top concentrations of 5 μM and 0.05% DMSO were obtained in the assay. Agonist BzATP was stored at 10 mM in aliquots and diluted to an intermediate concentration of 15 μM to generate the agonist plate. In the Flipr measurement, 10 μL per well were transferred (5× dilution) so that a final assay concentration of 3 μM was obtained.
For the experiment, the medium of the cell plate was discarded manually and 70 μL/well loading buffer was added and incubated for 1 h (37° C., 5% CO2). Loading buffer contained HBSS (w/o calcium/magnesium), 10 mM Hepes pH 7.4, 5 μM Fluo-8 (AM) (Tebu-bio) and 50 mM methylamine (Sigma) to trigger exocytosis. Loading buffer was discarded manually and 30 μL/well low-calcium assay buffer (5 mM KCl, 145 mM NaCl, 0.5 mM CaCl2, 13 mM glucose, 10 mM Hepes pH 7.4) was added. […]
Agonist addition was recorded for 240 seconds after a 10 second baseline. […]

With NS(=O)(=O)c1cc(NC(=O)Cc2ccccc2Cl)ccc1-c1cnn(C(F)F)c1 [Example 326, 2-(2-Chlorophenyl)-N-{4-[1-(difluoromethyl)-1H-pyrazol-4-yl]-3-sulfamoylphenyl}acetamide] the “Human P2X4 Monocytes (FLIPR Assay) Efficacy for different donors” value (“Human P2X4 Monocytes … for different donors” for short) was 86% and 89% and 82% and 91% and 70%.
In the case of NS(=O)(=O)c1cc(NC(=O)Cc2ccccc2Cl)ccc1-n1cc(C(F)(F)F)cn1 [Example 19, 2-(2-Chlorophenyl)-N-{3-sulfamoyl-4-[4-(trifluoromethyl)-1H-pyrazol-1-yl]phenyl}acetamide], the “Human P2X4 Monocytes … for different donors” value is reported as 57% and 74% and 48% and 46% and 93%.
With NS(=O)(=O)c1cc(NC(=O)Cc2ccccc2F)cnc1-c1cnn(C(F)F)c1 [Example 321, N-{6-[1-(Difluoromethyl)-1H-pyrazol-4-yl]-5-sulfamoylpyridin-3-yl}-2-(2-fluorophenyl)acetamide] the “Human P2X4 Monocytes … for different donors” value was 49% and 60% (2×).
For NS(=O)(=O)c1cc(NC(=O)Cc2ccccc2Cl)cnc1-n1cc(C(F)(F)F)cn1 [Example 380, 2-(2-Chlorophenyl)-N-{5-sulfamoyl-6-[4-(trifluoromethyl)-1H-pyrazol-1-yl]pyridin-3-yl}acetamide], the “Human P2X4 Monocytes … for different donors” value was 70% (3×) and 43%.
In the case of NS(=O)(=O)c1cc(NC(=O)Cc2ccccc2Cl)ccc1-n1cc(Cl)cn1 [Example 25, 2-(2-Chlorophenyl)-N-[4-(4-chloro-1H-pyrazol-1-yl)-3-sulfamoylphenyl]acetamide], the “Human P2X4 Monocytes … for different donors” value is reported as 87% and 82% and 70% (3×) and 53% and 68% and 111%.
